The subject of data set [1] is rats with experimental aortic stenosis. Description: Long term (12 month) experimental aortic stenosis. It is filed as in vivo, rat. On the procedure: A 12 month study using 60 white unbred male rats with initial body weights of 110-120 g, divided into four experimental groups, each group with 15 rats. Group I included intact animals (controls); Group II—rats with experimental aortic stenosis (untreated stenosed controls); Group III rats with experimental aortic stenosis given inosine in doses of 25 mg/kg/day; and Group IV rats with experimental aortic stenosis given both inosine and an orotic acid (in the instant study potassium orotate was used, however, as the orotic acid comprises 93-95% percent of any of the orotates, the results achieved are indicative of usage of any of the orotates including the potassium orotate used herein) combination in doses of 25 and 50 mg/kg/day, respectively, intragastrically, using a metal curved tube, beginning from the 45th day after the creation date of the abdominal aortic stenosis, and continuing for 10.5 months. The abdominal aortic stenosis was produced by the method of Beznak, referred to hereinabove, modified by Kogan, referred to above.
During the experimental period the animals in all four groups had regular measurements (recordings) of body weight and the 3-standard lead EKG-ms and 5-plane pericardial vector-cardiograms (VCG). At the beginning and end of the experimental period they also underwent tests for the endurance of a single, dosed physical exercise—forced swimming in a pool at 28-30° C., until maximally exhausted. Specifically, an animal had fixed to its tail a lead weight weighing approximately 7.5% percent of the animal's body weight became submerged due to the inability to continue swimming. At the end of the experimental period, the animals were sacrificed, and their hearts, thymuses, livers, adrenals and thyroids were weighed and their relative weights per 100 g body weight were calculated and recorded. Histological figures of sectioned cardiac muscle stained with hematoxilin-eosin were prepared by Van Hison's technique and examined for any attendant alterations in the normal histology of the heart. During the experiment, (untreated aortic stenosis) 8 of the 15 rats in Group II died, while in Group III (treated stenosis w/inosine) and Group IV (treated stenosis w/inosine and potassium orotate)—only 3 rats in each group died. […] The observed time period wherein the rats could swim were as follows: Groups I animals 45±2.0 minutes; Group II 6.5±2.1 minutes; Group III 16±1.2 minutes; and Group IV 32±4 minutes, respectively. Thus, the group receiving the combination of inosine and potassium orotate performed far better than Group II (untreated stenosis) and had doubled the work capacity of Group III (treated with inosine only). The relative weight of the heart in animals in Groups II, III and IV was higher than in Group I (control group) by 67%, 36% and 56%, respectively. (See Tables 2 A-B). The hearts of Group II animals were in the state of eccentric hypertrophy which explains the higher weight (see FIG. 5). The left ventricular wall in the animals of Group II was 8% thinner than in rats of Group I as a result of the eccentric condition. In rats of Groups III and IV the left ventricular wall was 30% and 46% thicker, respectively, than the rats in group I and they were all in the state of concentric heart hypertrophy.

For data set [2], the system named is white rats. Briefly: Long-term (6 months) work capacity in trained and non-trained rats. Particulars: INO 25 mg/kg, PO 50 mg/kg. On the procedure: Seventy two white rats were randomly placed in 6 groups (12 animals each), to test the effectiveness of training and to determine morphological and physiological alterations in the rats. In Group I, control rats were nontrained and not administered either of inosine or the combination of inosine and orotate; Group II comprised non-trained rats to which were administered inosine (25 mg/kg/body weight; Group III comprised non-trained rats to which were administered the combination of inosine plus potassium orotate (25 mg/kg/body weight of inosine and 50 mg/kg/body weight potassium orotate); Group IV comprised trained rats that were not administered either of inosine or the combination of inosine and orotate; Group V comprised trained rats to which was administered inosine alone (25 mg/kg/body weight), and Group VI comprised trained rats to which was administered the combination of inosine plus potassium orotate (25 mg/kg/body weight of inosine and 50 mg/kg/body weight potassium orotate).
Training of rats consisted of their forced swimming in a water bath (28-30° C.) with a weight fixed on their backs (7.5% of the rat body weight). During the first two weeks the animals swam daily for 5-10 minutes, after which we determined the individual maximum time of swimming to exhaustion (i.e. maximum work capacity) for each animal and then calculated the mean maximum time for each group. After 2 weeks these initial maximum work capacity values were used for planning and performing additional swimming training.
The functional condition of the rats at rest was estimated from their work capacity (maximum swimming time), body weight increase, EKG tests, oxygen consumption and sodium and potassium levels in the myocardium in a relatively quiet state. […] Also determined were the amounts of glycogen in the m. quadriceps (quadriceps group of muscles) of the hip, the myocardium and the liver. All the quantitative results obtained were processed with conventional statistical procedures.

For the compound `OC[C@H]1O[C@@H](n2cnc3c(O)ncnc32)[C@H](O)[C@@H]1O` [inosine], the “Body weight (g) 1½ months” value in data set [1] (1½ months after surgery (treatment began on the 45th day)) came out at 198 ± 6.0 g. In addition, in data set [1] (12 months after surgery), the “Relative weight of Adrenals” value is on record as 11 ± 0.7 mg/100 g, the “Relative weight of Liver” value is on record as 3475 ± 148 mg/100 g and the “Relative weight of Thymus” value is recorded as 116 ± 7.5 mg/100 g. Also, the “Body weight (g) 12 months” value in data set [1] (12 months after surgery, 10.5 months of treatment) is recorded as 443 ± 12 g. The “Body Weight After 6 mo.” value in data set [2] (trained rats) amounted to 290 ± 7.4. In data set [2] (untrained rats), the “Body Weight After 6 mo.” value is given as 280 ± 3.8.

Consider `O=C([O-])c1cc(=O)[nH]c(=O)[nH]1.[K+]` [potassium orotate], for which the “Body Weight After 6 mo.” value in data set [2] (untrained rats) came out at 286 ± 8.5.

For the origin of these results see patent US20100190737A1, “COMPOSITIONS COMPRISING INOSINE AND OROTIC ACID AND METHODS OF USE THEREOF FOR THE TREATMENT OF CERTAIN HEART CONDITIONS AND ENHANCEMENT OF WORK CAPACITY” (NUTRITIONAL RESEARCH GROUP LLC, priority 2009, published 2010).
